Measurements published in the supplement of paper PMC10849652.
The other results are listed elsewhere or left out.

Chains of the proteins cited; added tags and fusions are not shown. Lines headed by an entry give the natural chain unless they say otherwise; changes in a name come on top.
UniProt Q92619: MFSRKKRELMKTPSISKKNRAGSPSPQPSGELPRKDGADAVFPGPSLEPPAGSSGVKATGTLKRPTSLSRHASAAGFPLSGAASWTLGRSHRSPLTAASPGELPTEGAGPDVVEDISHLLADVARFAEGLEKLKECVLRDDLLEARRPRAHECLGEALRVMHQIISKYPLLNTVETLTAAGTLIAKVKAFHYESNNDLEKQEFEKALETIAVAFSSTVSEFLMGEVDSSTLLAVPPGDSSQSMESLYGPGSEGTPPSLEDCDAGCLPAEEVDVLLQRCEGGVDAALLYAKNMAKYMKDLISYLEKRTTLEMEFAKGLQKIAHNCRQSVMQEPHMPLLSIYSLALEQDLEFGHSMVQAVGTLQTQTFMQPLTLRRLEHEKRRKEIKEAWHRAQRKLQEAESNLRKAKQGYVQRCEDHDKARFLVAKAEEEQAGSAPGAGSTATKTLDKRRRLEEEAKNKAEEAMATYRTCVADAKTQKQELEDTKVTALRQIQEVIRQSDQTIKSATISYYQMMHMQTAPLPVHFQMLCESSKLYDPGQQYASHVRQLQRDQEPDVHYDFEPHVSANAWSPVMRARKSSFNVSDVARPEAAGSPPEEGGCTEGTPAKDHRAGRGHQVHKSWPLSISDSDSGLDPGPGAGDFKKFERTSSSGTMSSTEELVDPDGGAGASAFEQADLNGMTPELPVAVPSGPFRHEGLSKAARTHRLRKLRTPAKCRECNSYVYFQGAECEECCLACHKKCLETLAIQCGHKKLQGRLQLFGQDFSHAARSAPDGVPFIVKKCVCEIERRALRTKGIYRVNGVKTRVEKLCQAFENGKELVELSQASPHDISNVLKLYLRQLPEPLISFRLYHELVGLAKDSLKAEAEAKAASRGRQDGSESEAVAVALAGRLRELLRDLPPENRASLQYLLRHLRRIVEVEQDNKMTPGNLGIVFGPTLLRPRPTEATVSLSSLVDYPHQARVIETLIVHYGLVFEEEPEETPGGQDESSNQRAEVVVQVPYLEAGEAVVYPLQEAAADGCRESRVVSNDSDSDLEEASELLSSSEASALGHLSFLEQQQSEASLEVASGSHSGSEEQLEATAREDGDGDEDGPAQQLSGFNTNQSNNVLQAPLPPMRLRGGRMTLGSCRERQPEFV
UniProt P58335, whole entry, looked up: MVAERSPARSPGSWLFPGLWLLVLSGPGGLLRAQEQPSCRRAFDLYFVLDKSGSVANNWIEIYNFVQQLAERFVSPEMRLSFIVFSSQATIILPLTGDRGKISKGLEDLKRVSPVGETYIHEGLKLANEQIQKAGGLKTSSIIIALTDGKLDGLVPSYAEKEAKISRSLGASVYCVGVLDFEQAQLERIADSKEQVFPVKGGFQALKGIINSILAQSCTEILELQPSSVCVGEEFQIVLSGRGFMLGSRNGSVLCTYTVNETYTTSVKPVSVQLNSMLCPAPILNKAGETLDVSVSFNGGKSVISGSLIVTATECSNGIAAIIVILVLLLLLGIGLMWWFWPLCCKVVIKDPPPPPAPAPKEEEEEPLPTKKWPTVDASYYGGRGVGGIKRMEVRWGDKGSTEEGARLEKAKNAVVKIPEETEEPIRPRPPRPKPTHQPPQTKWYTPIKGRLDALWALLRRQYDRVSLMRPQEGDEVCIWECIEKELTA
UniProt Q96P48: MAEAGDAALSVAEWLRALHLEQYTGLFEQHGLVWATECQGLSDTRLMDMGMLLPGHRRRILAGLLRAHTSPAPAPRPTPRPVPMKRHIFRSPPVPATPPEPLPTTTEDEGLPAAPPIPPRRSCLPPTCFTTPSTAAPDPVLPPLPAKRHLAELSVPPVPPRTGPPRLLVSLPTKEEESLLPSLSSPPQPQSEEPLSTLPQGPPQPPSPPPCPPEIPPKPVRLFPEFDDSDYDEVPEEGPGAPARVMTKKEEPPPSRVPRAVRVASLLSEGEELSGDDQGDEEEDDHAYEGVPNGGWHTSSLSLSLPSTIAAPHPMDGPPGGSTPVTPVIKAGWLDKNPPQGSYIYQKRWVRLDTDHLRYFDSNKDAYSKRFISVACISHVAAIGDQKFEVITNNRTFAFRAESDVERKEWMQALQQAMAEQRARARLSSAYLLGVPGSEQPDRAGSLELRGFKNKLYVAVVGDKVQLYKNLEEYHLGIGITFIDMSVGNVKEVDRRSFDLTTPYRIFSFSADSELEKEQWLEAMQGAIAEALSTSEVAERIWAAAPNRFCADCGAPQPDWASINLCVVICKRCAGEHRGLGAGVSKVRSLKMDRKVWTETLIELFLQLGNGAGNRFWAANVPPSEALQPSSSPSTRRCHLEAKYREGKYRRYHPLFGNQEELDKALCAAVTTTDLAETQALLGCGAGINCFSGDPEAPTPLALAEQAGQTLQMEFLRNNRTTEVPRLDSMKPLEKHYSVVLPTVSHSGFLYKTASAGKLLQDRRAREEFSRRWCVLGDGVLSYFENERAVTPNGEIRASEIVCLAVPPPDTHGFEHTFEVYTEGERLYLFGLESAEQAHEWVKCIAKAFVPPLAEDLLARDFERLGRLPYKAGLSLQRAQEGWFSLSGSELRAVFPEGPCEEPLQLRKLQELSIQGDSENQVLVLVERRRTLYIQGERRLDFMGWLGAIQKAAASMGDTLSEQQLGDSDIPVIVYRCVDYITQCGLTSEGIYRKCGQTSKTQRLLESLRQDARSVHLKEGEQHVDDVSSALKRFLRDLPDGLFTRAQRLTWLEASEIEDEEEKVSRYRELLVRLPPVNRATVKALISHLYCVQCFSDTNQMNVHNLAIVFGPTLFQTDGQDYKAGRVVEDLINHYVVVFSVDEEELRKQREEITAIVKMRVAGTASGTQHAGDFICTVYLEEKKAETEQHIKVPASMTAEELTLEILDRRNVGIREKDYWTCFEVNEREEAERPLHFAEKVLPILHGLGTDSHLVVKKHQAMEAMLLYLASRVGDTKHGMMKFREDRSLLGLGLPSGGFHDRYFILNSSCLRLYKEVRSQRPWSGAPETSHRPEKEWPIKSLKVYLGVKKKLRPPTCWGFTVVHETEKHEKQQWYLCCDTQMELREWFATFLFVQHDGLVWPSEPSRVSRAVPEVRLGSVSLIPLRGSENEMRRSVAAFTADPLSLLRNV
UniProt P53365: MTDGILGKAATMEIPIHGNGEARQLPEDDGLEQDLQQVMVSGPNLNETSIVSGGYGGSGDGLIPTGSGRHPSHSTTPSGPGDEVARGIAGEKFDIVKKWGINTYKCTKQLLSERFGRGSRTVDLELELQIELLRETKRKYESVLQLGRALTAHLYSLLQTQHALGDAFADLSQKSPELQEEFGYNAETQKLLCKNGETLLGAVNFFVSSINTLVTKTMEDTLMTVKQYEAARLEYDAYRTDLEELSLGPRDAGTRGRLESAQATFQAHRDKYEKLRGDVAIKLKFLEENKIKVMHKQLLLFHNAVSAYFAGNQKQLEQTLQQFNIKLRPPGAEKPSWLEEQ
UniProt P56377: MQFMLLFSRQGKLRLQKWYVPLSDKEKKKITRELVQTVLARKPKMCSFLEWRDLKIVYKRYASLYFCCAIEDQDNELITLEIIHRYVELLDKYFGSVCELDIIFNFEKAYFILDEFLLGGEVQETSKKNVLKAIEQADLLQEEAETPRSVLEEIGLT
UniProt Q9BZZ5: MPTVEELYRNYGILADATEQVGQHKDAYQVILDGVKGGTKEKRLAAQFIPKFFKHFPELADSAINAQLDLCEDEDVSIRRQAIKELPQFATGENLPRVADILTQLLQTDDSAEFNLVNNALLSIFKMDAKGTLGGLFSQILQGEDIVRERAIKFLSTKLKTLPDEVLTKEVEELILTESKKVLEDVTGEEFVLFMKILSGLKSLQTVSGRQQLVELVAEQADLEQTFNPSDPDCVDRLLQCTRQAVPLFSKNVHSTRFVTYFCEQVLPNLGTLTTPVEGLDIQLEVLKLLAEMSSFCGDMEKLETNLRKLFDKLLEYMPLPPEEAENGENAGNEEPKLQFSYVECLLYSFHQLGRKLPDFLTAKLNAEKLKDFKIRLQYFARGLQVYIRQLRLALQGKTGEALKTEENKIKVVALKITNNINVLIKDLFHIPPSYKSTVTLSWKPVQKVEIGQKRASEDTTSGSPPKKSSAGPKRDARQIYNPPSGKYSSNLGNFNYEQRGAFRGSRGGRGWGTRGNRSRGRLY
UniProt Q9H0R1: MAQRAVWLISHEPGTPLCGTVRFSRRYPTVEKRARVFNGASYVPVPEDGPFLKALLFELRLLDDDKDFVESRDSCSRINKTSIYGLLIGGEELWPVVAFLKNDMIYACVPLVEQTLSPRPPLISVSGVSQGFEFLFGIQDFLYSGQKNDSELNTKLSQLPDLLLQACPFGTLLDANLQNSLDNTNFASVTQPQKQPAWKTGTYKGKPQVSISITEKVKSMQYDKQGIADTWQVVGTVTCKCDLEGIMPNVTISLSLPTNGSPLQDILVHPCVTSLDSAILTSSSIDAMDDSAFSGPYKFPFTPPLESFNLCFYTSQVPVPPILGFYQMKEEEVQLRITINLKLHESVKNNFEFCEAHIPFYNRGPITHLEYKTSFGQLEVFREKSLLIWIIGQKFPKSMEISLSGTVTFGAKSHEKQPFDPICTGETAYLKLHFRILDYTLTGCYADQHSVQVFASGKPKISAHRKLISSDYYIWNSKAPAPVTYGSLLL
UniProt O43299: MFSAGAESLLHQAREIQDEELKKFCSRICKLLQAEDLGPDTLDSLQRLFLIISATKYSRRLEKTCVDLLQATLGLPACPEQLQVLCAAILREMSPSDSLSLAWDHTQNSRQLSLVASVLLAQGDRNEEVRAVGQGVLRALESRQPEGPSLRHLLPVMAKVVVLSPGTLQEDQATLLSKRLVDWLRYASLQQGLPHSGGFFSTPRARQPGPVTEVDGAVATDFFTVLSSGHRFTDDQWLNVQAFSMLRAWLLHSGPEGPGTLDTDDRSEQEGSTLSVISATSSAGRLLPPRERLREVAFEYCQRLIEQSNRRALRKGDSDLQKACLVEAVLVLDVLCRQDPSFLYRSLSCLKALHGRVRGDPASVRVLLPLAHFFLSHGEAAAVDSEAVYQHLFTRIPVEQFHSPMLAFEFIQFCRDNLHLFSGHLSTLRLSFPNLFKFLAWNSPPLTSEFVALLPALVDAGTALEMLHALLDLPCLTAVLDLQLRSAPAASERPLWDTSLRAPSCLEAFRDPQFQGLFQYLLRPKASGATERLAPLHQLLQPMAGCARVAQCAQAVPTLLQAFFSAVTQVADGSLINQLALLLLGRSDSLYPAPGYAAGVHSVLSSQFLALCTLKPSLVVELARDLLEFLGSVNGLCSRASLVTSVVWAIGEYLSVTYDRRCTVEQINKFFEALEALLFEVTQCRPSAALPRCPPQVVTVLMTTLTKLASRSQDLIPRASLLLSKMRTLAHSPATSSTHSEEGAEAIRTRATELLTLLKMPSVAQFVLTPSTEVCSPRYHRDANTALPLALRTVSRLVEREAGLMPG
UniProt P08133: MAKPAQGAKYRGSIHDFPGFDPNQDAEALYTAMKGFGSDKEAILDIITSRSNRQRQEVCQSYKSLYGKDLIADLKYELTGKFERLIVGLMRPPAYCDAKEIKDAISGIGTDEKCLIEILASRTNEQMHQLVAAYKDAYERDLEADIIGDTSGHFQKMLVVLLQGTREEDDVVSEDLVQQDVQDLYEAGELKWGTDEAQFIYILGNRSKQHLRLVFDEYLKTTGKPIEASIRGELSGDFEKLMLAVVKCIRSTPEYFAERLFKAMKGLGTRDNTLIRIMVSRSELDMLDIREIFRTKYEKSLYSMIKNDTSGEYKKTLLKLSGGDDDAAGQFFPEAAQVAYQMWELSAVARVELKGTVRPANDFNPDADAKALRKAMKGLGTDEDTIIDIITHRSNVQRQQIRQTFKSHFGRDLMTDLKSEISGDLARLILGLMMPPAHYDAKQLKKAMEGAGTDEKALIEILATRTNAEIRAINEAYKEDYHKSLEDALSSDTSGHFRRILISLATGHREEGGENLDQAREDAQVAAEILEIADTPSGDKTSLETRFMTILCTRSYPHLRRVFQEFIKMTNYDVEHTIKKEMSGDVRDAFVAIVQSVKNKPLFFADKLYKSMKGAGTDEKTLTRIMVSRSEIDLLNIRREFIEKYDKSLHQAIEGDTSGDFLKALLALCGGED
UniProt O95445: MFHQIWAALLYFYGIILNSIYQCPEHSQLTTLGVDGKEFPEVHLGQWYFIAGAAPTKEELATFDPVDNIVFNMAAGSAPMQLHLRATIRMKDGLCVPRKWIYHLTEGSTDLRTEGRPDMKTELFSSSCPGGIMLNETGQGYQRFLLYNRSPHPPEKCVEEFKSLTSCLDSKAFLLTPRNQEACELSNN

How the values were obtained:
Test in all cases: log2 fold change, soluble protein after heating vs DMSO (PISA); higher = thermal stabilisation; K562 cells, 10 uM, 30 min; active = over 0.2 and 3.5 SD of the protein, either way, in both replicates (recomputed)
[1] = compound: CS(=O)(=O)c1ccc(-c2cnc(N)c(C(=O)Nc3ccccc3)n2)cc1
Outline: (§1)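 Soluble protein was defined as the supernatant after 21,000xg for 90 min. It came from K562 cells at 2×10^6 cells/mL given 10 μM compound for 30 min, heated in aliquots for 3 min across 48°C-58°C, pooled, and extracted in PBS with 0.5% NP-40 at 4°C, and was quantified by TMTpro 16plex LC-MS/MS with equalised channel sums. Thermal stability against control samples, from duplicates, is reported as log2 fold change.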

crizotinib = compound: C[C@@H](Oc1cc(-c2cnn(C3CCNCC3)c2)cnc1N)c1c(Cl)ccc(F)c1Cl [crizotinib]
Outline: as §1

[2] = compound: C[C@@H]1COCCN1C2=NC(=NC(=C2)C3(CC3)S(=O)(=O)C)C4=C5C=CNC5=CC=C4
Outline: as §1

[3] = compound: C[C@H](C1=CC=C(C=C1)C(=O)NC2=C3C=CNC3=NC=C2)N
Outline: as §1

duvelisib = compound: C[C@H](Nc1ncnc2nc[nH]c12)c1cc2cccc(Cl)c2c(=O)n1-c1ccccc1 [duvelisib]
Outline: as §1

gandotinib = compound: Cc1cc(Nc2cc(CN3CCOCC3)c3nc(C)c(Cc4ccc(Cl)cc4F)n3n2)n[nH]1 [gandotinib]
Outline: as §1

tozasertib = compound: Cc1cc(Nc2cc(N3CCN(C)CC3)nc(Sc3ccc(NC(=O)C4CC4)cc3)n2)n[nH]1 [tozasertib]
Outline: as §1

[4] = compound: Cc1cc(SCc2sc(-c3ccc(C(F)(F)F)cc3)nc2C)ccc1OCC(=O)O
Outline: as §1

doramapimod = compound: Cc1ccc(-n2nc(C(C)(C)C)cc2NC(=O)Nc2ccc(OCCN3CCOCC3)c3ccccc23)cc1 [doramapimod]
Outline: as §1

ispinesib = compound: Cc1ccc(C(=O)N(CCCN)[C@@H](c2nc3cc(Cl)ccc3c(=O)n2Cc2ccccc2)C(C)C)cc1 [ispinesib]
Outline: as §1

bafetinib = compound: Cc1ccc(NC(=O)c2ccc(CN3CC[C@H](N(C)C)C3)c(C(F)(F)F)c2)cc1Nc1nccc(-c2cncnc2)n1 [bafetinib]
Outline: as §1

[5] = compound: Cc1cccc(CC(=O)N2CCc3c2ccc(-c2cn(C)c4ncnc(N)c24)c3F)n1
Outline: as §1

nilotinib = compound: Cc1cn(-c2cc(NC(=O)c3ccc(C)c(Nc4nccc(-c5cccnc5)n4)c3)cc(C(F)(F)F)c2)cn1 [nilotinib]
Outline: as §1

[6] = compound: Cc1nc(Nc2n[nH]c3c2CN(C(=O)N[C@H](CN(C)C)c2ccccc2)C3(C)C)c2sccc2n1
Outline: as §1

dasatinib = compound: Cc1nc(Nc2ncc(C(=O)Nc3c(C)cccc3Cl)s2)cc(N2CCN(CCO)CC2)n1 [dasatinib]
Outline: as §1

[7] = compound: Cc1ncc(-c2ccnc(Nc3ccc(S(C)(=O)=O)cc3)n2)n1C(C)C
Outline: as §1

[8] = compound: Cn1cc(-c2ccc3c(c2)CCN3C(=O)Cc2cccc(C(F)(F)F)c2)c2c(N)ncnc21
Outline: as §1

[9] = compound: Cn1cc(-c2ccc3nnc(C(F)(F)c4ccc5ncccc5c4)n3n2)cn1
Outline: as §1

tipifarnib = compound: Cn1cncc1[C@@](N)(c1ccc(Cl)cc1)c1ccc2c(c1)c(-c1cccc(Cl)c1)cc(=O)n2C [tipifarnib]
Outline: as §1

mubritinib = compound: FC(F)(F)c1ccc(/C=C/c2nc(COc3ccc(CCCCn4ccnn4)cc3)co2)cc1 [mubritinib]
Outline: as §1

Measured: log2 fold change

ANKHD1 isoform 6 (UniProt Q8IWZ3)
inactive: [1] 0.042 | crizotinib -0.086 | [2] -0.088 | [3] 0.248 | duvelisib -0.093 | gandotinib 0 | tozasertib 0.041 | [4] 0.199 | doramapimod 0.132 | ispinesib -0.145 | bafetinib 0.039 | [5] 0.08 | nilotinib -0.092 | [6] -0.02 | dasatinib -0.058 | [7] -0.023 | [8] -0.064 | [9] -0.067 | tipifarnib -0.131 | mubritinib -0.039

ARHGAP12 (UniProt Q8IWW6)
inactive: [1] 0.075 | crizotinib 0.067 | [2] -0.057 | [3] 0.041 | duvelisib 0.02 | gandotinib -0.069 | tozasertib -0.01 | [4] 0.004 | doramapimod 0.029 | ispinesib -0.13 | bafetinib -0.074 | [5] 0.034 | nilotinib -0.041 | [6] -0.154 | dasatinib -0.079 | [7] -0.029 | [8] 0.032 | [9] 0.017 | tipifarnib 0.009 | mubritinib 0.117

ANK1 isoform 14 (UniProt P16157)
inactive: [1] 0.119 | crizotinib -0.093 | [2] -0.216 | [3] 0.428 | duvelisib -0.188 | gandotinib 0.108 | tozasertib 0.032 | [4] 0.04 | doramapimod 0.366 | ispinesib -0.297 | bafetinib 0.122 | [5] 0.041 | nilotinib -0.076 | [6] -0.137 | dasatinib 0.066 | [7] -0.01 | [8] -0.09 | [9] -0.14 | tipifarnib -0.01 | mubritinib -0.111

ARHGAP45 isoform 2 (UniProt Q92619)
inactive: [1] 0.053 | crizotinib 0.062 | [2] -0.066 | [3] 0.015 | duvelisib 0.021 | gandotinib -0.092 | tozasertib -0.018 | [4] 0.006 | doramapimod 0.087 | ispinesib -0.02 | bafetinib -0.052 | [5] -0.036 | nilotinib 0.001 | [6] -0.076 | dasatinib -0.063 | [7] 0.063 | [8] 0.015 | [9] -0.02 | tipifarnib 0.043 | mubritinib 0.042

ANTXR2 isoform 4 (UniProt P58335)
inactive: [1] 0.021 | crizotinib 0.017 | [2] 0.017 | [3] -0.04 | duvelisib 0.084 | gandotinib 0.038 | tozasertib -0.009 | [4] -0.026 | doramapimod -0.033 | ispinesib 0.035 | bafetinib -0.049 | [5] -0.102 | nilotinib 0.055 | [6] -0.046 | dasatinib 0.037 | [7] 0.057 | [8] -0.002 | [9] 0.038 | tipifarnib 0.042 | mubritinib 0.048

ARAP1 (UniProt Q96P48)
inactive: [1] -0.038 | crizotinib -0.094 | [2] -0.013 | [3] 0.289 | duvelisib -0.156 | gandotinib -0.15 | tozasertib 0.303 | [4] 0.1 | doramapimod 0.142 | ispinesib -0.178 | bafetinib 0.356 | [5] 0.046 | nilotinib -0.02 | [6] -0.426 | dasatinib -0.146 | [7] -0.008 | [8] -0.219 | [9] -0.053 | tipifarnib 0.21 | mubritinib -0.126

ARFIP2 (UniProt P53365)
inactive: [1] -0.035 | crizotinib -0.165 | [2] 0.007 | [3] -0.047 | duvelisib 0.065 | gandotinib -0.191 | tozasertib -0.145 | [4] -0.025 | doramapimod -0.043 | ispinesib -0.13 | bafetinib -0.171 | [5] 0.17 | nilotinib -0.197 | [6] -0.092 | dasatinib -0.284 | [7] 0.009 | [8] 0.06 | [9] 0.029 | tipifarnib -0.084 | mubritinib 0.027

AP1S2 (UniProt P56377)
inactive: [1] 0.035 | crizotinib -0.084 | [2] 0.17 | [3] -0.02 | duvelisib 0.051 | gandotinib -0.062 | [4] 0.227 | doramapimod 0.1 | bafetinib 0.102 | [5] 0.103 | nilotinib -0.092 | [6] -0.016 | dasatinib -0.133 | [7] 0.014 | [8] 0.1 | tipifarnib 0.008 | mubritinib 0.015

ARID1A (UniProt O14497)
inactive: [1] -0.078 | crizotinib -0.098 | [2] 0.094 | [3] 0.001 | duvelisib -0.001 | gandotinib -0.029 | tozasertib -0.059 | [4] 0.077 | doramapimod 0.055 | ispinesib 0.016 | bafetinib 0.091 | [5] 0.014 | nilotinib -0.145 | [6] 0.054 | dasatinib -0.063 | [7] 0.026 | [8] 0.072 | [9] -0.063 | tipifarnib 0.073 | mubritinib 0.067

ANKMY2 (UniProt Q8IV38)
inactive: [1] -0.033 | crizotinib 0.03 | [2] 0.086 | [3] 0.009 | duvelisib 0.031 | gandotinib -0.042 | tozasertib 0.014 | [4] 0.035 | doramapimod -0.028 | ispinesib 0.064 | bafetinib -0.017 | [5] 0.084 | nilotinib -0.03 | [6] 0.012 | dasatinib -0.071 | [7] 0.006 | [8] -0.005 | [9] -0.021 | tipifarnib -0.064 | mubritinib -0.017

APOBR (UniProt Q0VD83)
inactive: [1] 0.028 | crizotinib 0.081 | [2] 0.055 | [3] 0.02 | duvelisib 0.047 | gandotinib -0.008 | tozasertib -0.025 | [4] -0.055 | doramapimod 0 | ispinesib 0.02 | bafetinib -0.015 | [5] -0.072 | nilotinib -0.028 | [6] 0.041 | dasatinib 0.049 | [7] -0.011 | [8] 0.039 | [9] 0.01 | tipifarnib 0.027 | mubritinib -0.009

Three consecutive records from above, for reference:
ARID1A (UniProt O14497)
inactive: [1] -0.078 | crizotinib -0.098 | [2] 0.094 | [3] 0.001 | duvelisib -0.001 | gandotinib -0.029 | tozasertib -0.059 | [4] 0.077 | doramapimod 0.055 | ispinesib 0.016 | bafetinib 0.091 | [5] 0.014 | nilotinib -0.145 | [6] 0.054 | dasatinib -0.063 | [7] 0.026 | [8] 0.072 | [9] -0.063 | tipifarnib 0.073 | mubritinib 0.067

ANKMY2 (UniProt Q8IV38)
inactive: [1] -0.033 | crizotinib 0.03 | [2] 0.086 | [3] 0.009 | duvelisib 0.031 | gandotinib -0.042 | tozasertib 0.014 | [4] 0.035 | doramapimod -0.028 | ispinesib 0.064 | bafetinib -0.017 | [5] 0.084 | nilotinib -0.03 | [6] 0.012 | dasatinib -0.071 | [7] 0.006 | [8] -0.005 | [9] -0.021 | tipifarnib -0.064 | mubritinib -0.017

APOBR (UniProt Q0VD83)
inactive: [1] 0.028 | crizotinib 0.081 | [2] 0.055 | [3] 0.02 | duvelisib 0.047 | gandotinib -0.008 | tozasertib -0.025 | [4] -0.055 | doramapimod 0 | ispinesib 0.02 | bafetinib -0.015 | [5] -0.072 | nilotinib -0.028 | [6] 0.041 | dasatinib 0.049 | [7] -0.011 | [8] 0.039 | [9] 0.01 | tipifarnib 0.027 | mubritinib -0.009

More entries:

API5 isoform 2 (UniProt Q9BZZ5)
inactive: [1] 0.036 | crizotinib 0.027 | [2] -0.049 | [3] -0.116 | duvelisib 0.007 | gandotinib 0 | tozasertib 0.073 | [4] -0.007 | doramapimod -0.07 | ispinesib 0.094 | bafetinib -0.068 | [5] -0.075 | nilotinib -0.01 | [6] 0.001 | dasatinib -0.018 | [7] -0.06 | [8] 0.052 | [9] -0.058 | tipifarnib -0.051 | mubritinib 0.014

AP5M1 (UniProt Q9H0R1)
inactive: [1] 0.079 | crizotinib -0.036 | [2] -0.062 | [3] 0.101 | duvelisib -0.057 | gandotinib 0.057 | [4] 0.014 | doramapimod -0.073 | ispinesib -0.109 | bafetinib 0.083 | [5] -0.033 | nilotinib 0.024 | [6] -0.002 | dasatinib -0.002 | [7] 0.007 | [8] -0.106 | [9] 0.114 | tipifarnib -0.009 | mubritinib -0.473

AP5Z1 (UniProt O43299)
inactive: [1] 0.074 | crizotinib -0.005 | [2] -0.104 | [3] 0.104 | duvelisib 0.062 | gandotinib -0.321 | tozasertib -0.093 | [4] -0.058 | doramapimod -0.048 | ispinesib -0.188 | bafetinib -0.334 | [5] -0.13 | nilotinib 0.007 | [6] -0.006 | dasatinib 0.046 | [7] -0.04 | [8] -0.001 | [9] 0.066 | tipifarnib 0.065 | mubritinib 0.057

ANXA6 (UniProt P08133)
inactive: [1] 0.07 | crizotinib -0.007 | [2] 0.13 | [3] -0.007 | duvelisib 0.037 | gandotinib 0.114 | tozasertib 0.024 | [4] -0.008 | doramapimod 0.015 | ispinesib -0.026 | bafetinib -0.041 | [5] -0.006 | nilotinib -0.002 | [6] -0.042 | dasatinib 0.038 | [7] -0.006 | [8] 0.026 | [9] 0 | tipifarnib -0.007 | mubritinib 0.034

APOM (UniProt O95445)
inactive: [1] -0.147 | crizotinib 0.146 | [2] 0.058 | [3] 0.177 | duvelisib -0.215 | gandotinib -0.109 | tozasertib -0.05 | [4] -0.114 | doramapimod 0.253 | ispinesib -0.048 | bafetinib -0.067 | [5] -0.004 | dasatinib 0.089 | [8] 0.177 | [9] -0.049 | tipifarnib -0.021 | mubritinib -0.124
